Reference: paper PMC4488436
No constants are given. Whether binding was seen depends on the method and setting. Binding calls can cover weak binding; strength is not graded here.

Target: T1, MalE-GltA^22-256 (Myxococcus xanthus) (UniProt Q1D6L0)
T1 sequence: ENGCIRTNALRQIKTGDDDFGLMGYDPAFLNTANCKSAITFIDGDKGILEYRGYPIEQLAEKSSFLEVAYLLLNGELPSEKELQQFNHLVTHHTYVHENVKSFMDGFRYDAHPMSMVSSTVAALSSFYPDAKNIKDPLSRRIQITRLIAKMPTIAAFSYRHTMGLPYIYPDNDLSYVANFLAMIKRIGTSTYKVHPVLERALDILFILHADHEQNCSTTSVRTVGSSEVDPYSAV
Assay: pull-down; 300 ug of each purified protein mixed in 1 ml buffer CB1 (20 mM Tris-HCl pH 7.4, 200 mM NaCl, 1 mM DTT, 1 mM EDTA), 1 h at 4°C; MalE protein held on amylose matrix (2 h, 4°C), washed, eluted with 10 mM maltose; immunoblot; both purified

Row | binding | Substance
1 | binds | GST-GltB^20-275 (Myxococcus xanthus) (domain or fragment)
2 | binds | GltC^25-673-His6 (Myxococcus xanthus) (domain or fragment)
